Measured values from article PMC9917220.
The comparison behind a weaker result is the experiment's own reference, which may not be listed here.

Test system: human thrombin (Homo sapiens)
Assay: CD
Settings: 0.5 uM thrombin, 5 uM DNA, slight spectral change; Binding Buffer: 50 mM Tris-HCl, 100 mM NaCl, 1 mM MgCl2, pH not stated; folded or branched DNA

TACAGGCAGTAAGGCCGTGTCATCAGGATGGGCACTTTCCTAGGGCAGGTT [51mer AS2-3]
binding result: binds more weakly
